# Several values for one entry are separate records, joined by “and”; a condition that tells them apart may be missing. Equal entries are not always repeated. About 310 (0.13%) of roughly 230,000 compounds were called active. The inconclusive results got no clear call from the source; some entries with a clear call stand among them for comparison. Calls come from the whole dose curve; as a rule, active = well fitted activation curve with a large enough effect; inconclusive = small, poorly fitted or top-dose-only effect; inactive = no such curve, though single readings can be large or run the other way. Potencies beside an inconclusive call are fits to weak or partial responses and may not hold up.
# Test: qHTS Multiplex Assay to Identify Dual Action Probes in a Cell Model of Huntington: Cytoprotection (ATP); note: nearly all actives have a fitted effect of over 45% in size;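 for cytoprotection (ATP increase): toxic huntingtin expression switched on by the ecdysone agonist tebufenozide; % of control where 0% means no effect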
# Conditions: PC12 HTT-Q103 induced, ATP luminescence, 40 h; cytoprotection (ATP increase): at 56.4 µM (top of the series) unless noted
# Procedure, shortened: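 Huntington model: PC12 line, ecdysone-inducible HTTQ103 exon1–GFP, tebufenozide 100 nM. Test articles in a dose series. Endpoint luminescence from cellular ATP.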
# Potency is the fitted concentration of half-maximal effect.
Compound,Potency,cytoprotection (ATP increase)
Cc1c(F)c(N2CCNC(C)C2)cc2c1c(=O)c(C(=O)O)cn2C1CC1 (stereo not given),inactive,
NNC(=O)/C=C/c1ccc(Cl)cc1Cl,inactive,
COc1ccc(N2C(=O)C(Cl)=C(Oc3cccc(OC)c3)C2=O)cc1,"inconclusive: 28.2 µM [activator, single point]",
COc1cc2nc(CSc3ncn[nH]3)[nH]c(=O)c2cc1OC,inactive,
COc1ccc(CCNC(=O)C23CN(Cc4ccccc4)CC2C(c2ccc([N+](=O)[O-])cc2)=NO3)cc1 (stereo not given),,inactive: -23.9% [at 10 µM]
Cc1cc(C)nc(NC(=O)/C=C/c2ccccc2Cl)c1,"inconclusive: 0.631 µM [activator, partial curve]",
CCN(CC)CC1CCCCN1CC(=O)N1c2ccccc2C(=O)Nc2cccnc21 (stereo not given),"inconclusive: 35.5 µM [activator, single point]",
O=c1oc(-c2ccccc2)nc2c1C1(CCCCC1)Cc1ccccc1-2,"inconclusive: 1.12 µM [activator, partial curve]",
CCOC(=O)C1(C)NC(c2cccs2)C2C(=O)N(c3ccccc3)C(=O)C21 (stereo not given),"inconclusive: 1 µM [activator, single point]",
CN(Cc1cc(C(C)(C)C)cc(Br)c1O)Cc1cc(C(C)(C)C)cc(Br)c1O,,inactive: 11.2% [at 10 µM]
CCCn1c(SCC(=O)Nc2nc3ccccc3s2)nc2c1c(=O)n(C)c(=O)n2C,inactive,
COc1ccc(C(=O)C2CCCN(C(=O)c3cc(C(C)C)no3)C2)cc1F (stereo not given),,inactive: -9.19% [at 10 µM]
C/C=C1/C2C=C(C)CC1(N)c1ccc(=O)[nH]c1C2 (stereo not given),"inconclusive: 1.41 µM [activator, partial curve, poor fit]",
CCOc1ccc(OCC)c(Nc2cc(C)nc3ncnn23)c1,inactive,
CC1(OC(=O)C2CCCC2)C(=O)C=C2C=C(c3ccsc3)N(Cc3ccc4c(c3)OCO4)C=C2C1=O (stereo not given),"inconclusive: 1.26 µM [activator, single point]",
O=C(Cc1ccc(F)cc1)N1CCN=C1SCc1cccc([N+](=O)[O-])c1,"inconclusive: 0.794 µM [activator, single point]",
O=C(CSCc1ccc(C(=O)O)cc1)Nc1ccccc1,"inconclusive: 2.51 µM [activator, single point]",
C#CCCCCCCCCCCCCCCCC(=O)O,"inconclusive: 398 nM [activator, partial curve] and inconclusive: 5.62 µM [activator, single point]",
COc1cc(O)c(/C=N/NC(=O)c2ccncc2)c(OC)c1[N+](=O)[O-],"inconclusive: 20 µM [activator, single point]",
CCC1(CC)C(=O)C(C)(C)C(=O)OC1c1ccccn1 (stereo not given),"inconclusive: 3.16 µM [activator, single point]",
Cc1ccc2nc(NC(=O)CSc3ncnc4c3oc3ccccc34)sc2c1,,inactive: 1.56% [at 10 µM]
C[C@@H]1O[C@@H](OC[C@H]2O[C@@H](Oc3c(-c4ccc(O)c(O)c4)oc4cc(O)cc(O)c4c3=O)[C@H](O)[C@@H](O)[C@@H]2O)[C@H](O)[C@H](O)[C@H]1O,"inconclusive: 3.98 µM [activator, full curve]",

# Looked up by compound from the list above:
Compound,Potency,cytoprotection (ATP increase)
CCC1(CC)C(=O)C(C)(C)C(=O)OC1c1ccccn1 (stereo not given),"inconclusive: 3.16 µM [activator, single point]",
O=C(CSCc1ccc(C(=O)O)cc1)Nc1ccccc1,"inconclusive: 2.51 µM [activator, single point]",
Cc1cc(C)nc(NC(=O)/C=C/c2ccccc2Cl)c1,"inconclusive: 0.631 µM [activator, partial curve]",

# Following part.

Compound,Potency,cytoprotection (ATP increase)
Cc1c(C(=O)Nc2nc3ccccc3[nH]2)oc2ccccc12,,inactive: 8.72% [at 1.9 µM]
CC1CCC/C(=N\NC(=S)NCc2ccccc2)C1 (stereo not given),inactive,
N#CCCn1c(=O)c(-c2ccc(Cl)cc2)nc2cnc(N3CCOCC3)nc21,"inconclusive: 0.562 µM [activator, partial curve, poor fit]",
CCCCCCCCCc1nc2sc3c(c2c(=O)n1NC(=O)c1ccccc1[N+](=O)[O-])CC(C)(C)OC3,,inactive: 29.4% [at 10 µM]
CC(=O)c1c(C)[nH]c(C(=O)OC2CCOC2=O)c1C (stereo not given),,inactive: -5.17% [at 10 µM]
CO[C@@H]1COC(=O)[C@H](CCSC)NC(=O)C/C=C\[C@@H](C)COC(=O)[C@@H]2CCCN2C(=O)C/C=C\[C@H]1C,"inconclusive: 0.126 µM [activator, single point]",
C/C(=N\Nc1ccc([N+](=O)[O-])cc1)c1ccc(O)cc1,"inconclusive: 3.98 µM [activator, single point]",
CCC(C)c1ccc(NC(=S)NCc2cccnc2)cc1 (stereo not given),,inactive: 15.5% [at 10 µM]
O=C(NCCCO)/C(=C\C=C\c1ccccc1)NC(=O)c1ccccc1Cl,"inconclusive: 1.26 µM [activator, single point]",
O=C(N/C=N/OCc1cccc(C(F)(F)F)c1)N1OC[C@@H]2COc3ccc4ccccc4c3[C@@H]21,"inconclusive: 5.62 µM [activator, single point]",
CCNC(=O)CCSc1nc(C)cc(C)n1,"inconclusive: 0.1 µM [activator, partial curve]",
Cc1ccc(N2C(=O)/C(=C\c3ccco3)SC2=S)cc1,inactive,
CCCc1nc2c(C)cc(-c3nc4ccccc4n3C)cc2n1Cc1ccc(-c2ccccc2C(=O)O)cc1,"inconclusive: 0.501 µM [activator, full curve]",
CCCCN=C1NN=C(c2ccc3c(c2)OCCO3)CS1,inactive,
O=C(O)c1cccc(Nc2cc(Cl)c3nonc3c2[N+](=O)[O-])c1,"inconclusive: 35.5 µM [activator, single point]",
CCCCOC(=O)c1ccc(O)cc1,"inconclusive: 7.94 µM [activator, single point]",
S=C([S-])NCCNC(=S)[S-].[Zn+2],"inconclusive: 39.8 µM [activator, single point]",
CCOC(=O)CCc1c(C)nc(-n2[nH]c(C)c(CCO)c2=O)[nH]c1=O,"inconclusive: 2.82 µM [activator, partial curve]",
CCC1NC(=S)NC(C)=C1C(=O)c1ccccc1 (stereo not given),"inconclusive: 12.6 µM [activator, partial curve]",
O=C(O)c1ccc(COc2ccccc2Cl)cc1,inactive,
CC(=O)c1ccc(OCC(C)C)c(Cc2c(O)nc(N)[nH]c2=O)c1,"inconclusive: 4.47 µM [activator, single point]",
O=C1C[C@@H](O)[C@@H](O)[C@@H]2[C@H]3C(=O)N(c4ccc(F)cc4F)C(=O)[C@@H]3CC[C@H]12,,inactive: -0.983% [at 10 µM]

Compound,Potency,cytoprotection (ATP increase)
COC(=O)C1=C(C)N(Cc2ccccc2)C(=O)N[C@H]1c1ccc(Br)cc1,"inconclusive: 0.708 µM [activator, partial curve]",
CCC(=O)OC1(C)C(=O)C=C2C=C(CCCCNC(=O)OC(C)(C)C)OC=C2C1=O (stereo not given),"inconclusive: 6.31 µM [activator, single point]",
O=C(NC1CC1)c1ccc(F)cc1Cl,inactive,
COC(=O)C1(C(=O)OC)NOC2C(=O)N(N(C)c3ncc(C(F)(F)F)cc3Cl)C(=O)C21 (stereo not given),"inconclusive: 3.55 µM [activator, single point]",
COc1ccccc1CCn1c(=O)c(-c2cccc(F)c2)nc2cncnc21,"inconclusive: 31.6 µM [activator, single point]",
O=C1CC[C@@]23/C=C/C(=O)NCCCCNCCCNC(=O)/C=C/c4ccc(c2c4)OC3C1 (stereo not given in full),"inconclusive: 1.12 µM [activator, single point]",
CC[N+](CC)(CCNC(=O)C(=O)NCC[N+](CC)(CC)Cc1ccccc1Cl)Cc1ccccc1Cl,"inconclusive: 0.794 µM [activator, partial curve, poor fit]",
Cc1nc2cnc(Oc3ccccc3)nc2n(C)c1=O,"inconclusive: 31.6 µM [activator, single point]",
CC(=O)Oc1cc(C)c(OC(C)=O)c2ccccc12,inactive,
COc1ccc(C(=O)/C=C/Nc2cc(C)on2)c(OC)c1,"inconclusive: 1 µM [activator, partial curve]",
O=C(COc1ccc(/C=N/NC(=O)c2ccccc2O)cc1)Nc1ccc([N+](=O)[O-])cc1,"inconclusive: 5.62 µM [activator, single point]",
O=C(C[n+]1ccc(/C=N/O)cc1)N(Cc1ccccc1)Cc1ccccc1,"inconclusive: 31.6 µM [activator, single point]",
O=C(CCc1c[nH]c2ccccc12)NC1CC1,"inconclusive: 0.355 µM [activator, single point]",
Cc1nnsc1NC(=O)OCc1ccc(Cl)cc1Cl,inactive,
COc1cccc([C@H]2Oc3ccc(OC)cc3/C(=N\O[C@@H](C)c3cn([C@H](CO)Cc4ccccc4)nn3)[C@@H]2O)c1,"inconclusive: 0.398 µM [activator, single point]",
CCn1c(SCc2cccc(F)c2)nc2c(c1=O)SCC2,inactive,
COc1ccc(CNC(=O)[C@H]2C[C@@H]2[C@H](NP(=O)(c2ccccc2)c2ccccc2)c2ccccc2)cc1OC,inactive,
CCOc1ccccc1C(=O)N1c2ccccc2Sc2ccccc21,"inconclusive: 0.0891 µM [activator, partial curve, poor fit]",
CC(C)C[C@@H](CC(=O)N[C@@H](CCC(=O)O)CC(=O)O)NC(=O)[C@@H]1CCCC[C@H]1NC(=O)C[C@H](CCCN)NC(=O)C[C@H](CO)NC(=O)[C@@H]1CCCC[C@H]1N,"inconclusive: 1.78 µM [activator, full curve]",
COC(=O)N/N=C(\C)c1ccc2ccccc2c1OC(F)F,active: 0.794 µM,
COC(=O)C1=C(C)OC(N)=C(C#N)C1c1cc2cccc(C)c2nc1Cl (stereo not given),"inconclusive: 0.891 µM [activator, single point]",

# Grouped by structure: those above with a tert-butyl group.
Compound,Potency,cytoprotection (ATP increase)
CN(Cc1cc(C(C)(C)C)cc(Br)c1O)Cc1cc(C(C)(C)C)cc(Br)c1O,,inactive: 11.2% [at 10 µM]
CCC(=O)OC1(C)C(=O)C=C2C=C(CCCCNC(=O)OC(C)(C)C)OC=C2C1=O (stereo not given),"inconclusive: 6.31 µM [activator, single point]",

# Source: PubChem BioAssay AID1471 (National Center for Advancing Translational Sciences (NCATS), 2008)
